Data as given in PubChem BioAssay AID504791 (Drosophila RNAi Screening Center, 2011).
The deposit covers about 23,000 reagents; shown is a random part of those that have a named target and a result. Of all reagents, 199 (0.86%) are marked active. 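Plate-scaled ratios behind the calls are not deposited; printed light signals are raw; many rows marked increased or decreased are still called inactive.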 Entries without a mark were called inactive. The numbers tell different reagents against one gene apart. Names joined by + are all predicted targets of the reagent. Reagent sequences are not shown. Not stated in the record: the direction of the score.

Purpose: 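Genes of the fly required for silencing by miRNA, siRNA or endo-siRNA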 (primary screen)
Cells: Drosophila S2-derived reporter cells
Knock-down reagent: long dsRNA against Drosophila genes, about 150-250 ng dsRNA per well (siRNA assay); about 80-120 ng (miRNA assay)
Time to read-out: about 5 days (siRNA assay); about 4 days (miRNA assay)
Conditions: copper sulfate induction of reporters: 25 µM (siRNA assay); 200 mM stated (miRNA assay), 1-2 days before reading
Detection: 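Per-well ratio of Renilla over firefly light, expressed relative to that plate's average ratio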
Units: stable assay Renilla, run 1 in luminescence; stable assay firefly, run 1 in luminescence
Active means: 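First-pass picks had plate-scaled ratios over 1.5 for the siRNA assay, over 1.6 for the miRNA assay, or under 0.6; two distinct dsRNAs had to score alike on retest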

gene knocked down	reagent no.	stable siRNA reporter change	miRNA reporter change	stable assay Renilla, run 1	stable assay firefly, run 1
CG2898	1			4879	4.82e5
CG12828	1			8063	4.18e5
CG4377	1			1.98e5	3.88e5
Roc1b + Cdc5	1			5978	3.51e5
Gnf1	1			9163	3.87e5
mle	1			5535	2.70e5
CG9988	1			5520	3.01e5
Nelf-E	1		reporter ratio lowered past the hit cutoff (active)	6172	5.32e5
PGAP1	1			8123	5.09e5
Sec22	1			8759	4.49e5
CG42335	1			7371	3.61e5
CG42335	2			6619	3.26e5
mtt	1			4472	3.24e5
mtt	2			5226	4.36e5
mtt	3			6267	3.27e5
mtt	4			6303	4.09e5
Ugt37D1	1			7566	4.01e5
phu	1			5907	3.71e5
CG13946	1			7886	6.15e5
baf	1			6362	5.04e5
pxb	1	reporter ratio lowered past the hit cutoff		3079	4.48e5
pxb	2			2700	2.45e5
pxb	3			6658	4.46e5
pxb	4			10458	6.57e5
Septin5	1			7563	3.57e5
Spn77Ba	1			8434	3.89e5
CG11977	1			7131	4.01e5
CG32668	1			4967	3.47e5
tn	1			5391	3.47e5
tn	2			9075	3.96e5
PH4alphaNE3	1			7871	4.72e5
CG1764	1			7131	4.09e5
lush	1			7710	4.58e5
PolE4	1			6623	4.36e5
Dhit	1			8978	3.33e5
CG13713	1			7376	5.47e5
chb	1			6239	4.66e5
CG43163	1			6243	4.19e5
CG43163	2			5955	3.64e5
Cals	1			6815	2.69e5
Cals	2			9259	4.68e5
CG15140	1			7282	4.43e5
Hsp70Bb + Hsp70Bbb	1			5550	5.40e5
CG7183	1			9214	2.59e5
CG14613	1			7825	4.65e5
Muc55B	1			10365	5.79e5
Ae2	1			3943	3.70e5
Ae2	2			8280	4.49e5
CG5565	1			6986	3.94e5
CG7376	1			7687	5.03e5
NC2alpha	1		reporter ratio lowered past the hit cutoff	10573	4.61e5
CG5171	1			9505	4.83e5
CG10026	1			7515	4.10e5
Taf8	1			5559	6.08e5
CG11951	1			7300	3.57e5
Shrm	1			5203	3.55e5
Shrm	2	reporter ratio lowered past the hit cutoff		5616	5.13e5
Shrm	3			7138	4.08e5
Shrm	4			6142	3.87e5
